Some of the results follow. Small differences around the control level are noise.

By UniProt entry, the sequences of proteins in these tests, tags left out. Where a name states a change or a piece, a line headed by the entry shows the natural chain unless it says otherwise.
UniProt Q6R327, whole entry: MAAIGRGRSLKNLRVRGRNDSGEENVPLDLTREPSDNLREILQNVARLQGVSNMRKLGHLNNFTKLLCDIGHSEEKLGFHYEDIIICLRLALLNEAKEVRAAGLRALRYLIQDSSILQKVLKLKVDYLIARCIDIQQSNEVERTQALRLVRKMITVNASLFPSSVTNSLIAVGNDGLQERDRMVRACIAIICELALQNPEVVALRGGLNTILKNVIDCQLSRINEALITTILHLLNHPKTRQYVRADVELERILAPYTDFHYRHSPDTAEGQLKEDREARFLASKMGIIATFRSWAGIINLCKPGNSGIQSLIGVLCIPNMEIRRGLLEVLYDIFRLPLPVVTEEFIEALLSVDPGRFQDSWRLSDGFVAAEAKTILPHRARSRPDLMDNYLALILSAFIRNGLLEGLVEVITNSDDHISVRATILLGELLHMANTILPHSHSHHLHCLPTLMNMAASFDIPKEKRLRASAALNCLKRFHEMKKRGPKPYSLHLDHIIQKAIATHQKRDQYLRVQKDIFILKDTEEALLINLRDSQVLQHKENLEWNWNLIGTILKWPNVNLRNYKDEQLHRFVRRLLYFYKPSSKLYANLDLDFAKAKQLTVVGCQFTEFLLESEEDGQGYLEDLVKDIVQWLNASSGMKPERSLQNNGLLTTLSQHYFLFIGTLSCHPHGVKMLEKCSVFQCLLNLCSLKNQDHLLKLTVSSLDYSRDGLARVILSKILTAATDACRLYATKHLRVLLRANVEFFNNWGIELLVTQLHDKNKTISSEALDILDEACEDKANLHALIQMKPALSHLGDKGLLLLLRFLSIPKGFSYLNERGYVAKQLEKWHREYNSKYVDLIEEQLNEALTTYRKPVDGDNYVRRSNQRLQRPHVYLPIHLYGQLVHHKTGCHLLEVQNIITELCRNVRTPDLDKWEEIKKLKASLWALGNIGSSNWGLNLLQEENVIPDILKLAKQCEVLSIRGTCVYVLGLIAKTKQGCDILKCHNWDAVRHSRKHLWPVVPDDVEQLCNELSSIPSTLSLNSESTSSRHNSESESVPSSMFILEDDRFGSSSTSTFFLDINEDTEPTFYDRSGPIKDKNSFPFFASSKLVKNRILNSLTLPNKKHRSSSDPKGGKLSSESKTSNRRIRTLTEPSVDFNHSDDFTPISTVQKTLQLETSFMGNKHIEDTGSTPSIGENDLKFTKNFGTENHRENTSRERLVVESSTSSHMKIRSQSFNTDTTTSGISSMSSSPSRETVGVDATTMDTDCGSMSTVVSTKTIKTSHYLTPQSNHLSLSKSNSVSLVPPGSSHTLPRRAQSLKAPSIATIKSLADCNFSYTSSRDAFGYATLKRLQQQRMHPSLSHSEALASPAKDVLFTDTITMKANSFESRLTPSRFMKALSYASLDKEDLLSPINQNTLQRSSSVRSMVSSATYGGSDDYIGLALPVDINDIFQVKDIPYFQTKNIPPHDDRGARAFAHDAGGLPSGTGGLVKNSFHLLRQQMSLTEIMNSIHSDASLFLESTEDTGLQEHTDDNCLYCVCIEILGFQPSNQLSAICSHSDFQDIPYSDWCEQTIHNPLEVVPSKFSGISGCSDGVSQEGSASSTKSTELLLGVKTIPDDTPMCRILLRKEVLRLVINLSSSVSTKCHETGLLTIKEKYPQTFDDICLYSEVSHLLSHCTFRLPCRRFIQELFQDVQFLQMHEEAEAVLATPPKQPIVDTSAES
UniProt Q6NXT1: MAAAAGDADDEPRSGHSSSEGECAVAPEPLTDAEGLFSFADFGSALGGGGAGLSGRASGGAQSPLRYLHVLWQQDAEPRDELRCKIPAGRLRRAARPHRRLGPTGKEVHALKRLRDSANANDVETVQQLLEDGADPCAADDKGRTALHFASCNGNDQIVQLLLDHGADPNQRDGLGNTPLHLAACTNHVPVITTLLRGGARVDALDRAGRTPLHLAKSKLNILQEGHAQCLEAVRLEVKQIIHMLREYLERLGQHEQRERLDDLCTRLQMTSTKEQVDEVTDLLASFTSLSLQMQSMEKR
UniProt Q6UVJ0: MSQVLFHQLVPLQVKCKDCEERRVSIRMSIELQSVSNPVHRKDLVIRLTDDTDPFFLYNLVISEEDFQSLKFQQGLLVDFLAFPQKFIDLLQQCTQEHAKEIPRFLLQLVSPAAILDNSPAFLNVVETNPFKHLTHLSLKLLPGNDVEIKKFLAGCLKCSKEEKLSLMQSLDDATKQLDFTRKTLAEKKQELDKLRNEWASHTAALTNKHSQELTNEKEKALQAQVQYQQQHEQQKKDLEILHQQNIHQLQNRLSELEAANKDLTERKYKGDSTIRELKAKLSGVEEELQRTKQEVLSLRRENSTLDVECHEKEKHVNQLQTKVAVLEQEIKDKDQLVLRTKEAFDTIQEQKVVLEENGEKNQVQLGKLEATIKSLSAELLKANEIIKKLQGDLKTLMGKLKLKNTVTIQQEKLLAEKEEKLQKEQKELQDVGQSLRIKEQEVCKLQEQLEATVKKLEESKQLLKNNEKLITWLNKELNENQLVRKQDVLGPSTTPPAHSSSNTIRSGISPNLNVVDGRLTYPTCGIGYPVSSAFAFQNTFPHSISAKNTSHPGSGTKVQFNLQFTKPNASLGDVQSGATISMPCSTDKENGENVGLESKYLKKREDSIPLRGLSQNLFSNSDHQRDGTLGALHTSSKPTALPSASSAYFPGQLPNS
UniProt Q6PF04: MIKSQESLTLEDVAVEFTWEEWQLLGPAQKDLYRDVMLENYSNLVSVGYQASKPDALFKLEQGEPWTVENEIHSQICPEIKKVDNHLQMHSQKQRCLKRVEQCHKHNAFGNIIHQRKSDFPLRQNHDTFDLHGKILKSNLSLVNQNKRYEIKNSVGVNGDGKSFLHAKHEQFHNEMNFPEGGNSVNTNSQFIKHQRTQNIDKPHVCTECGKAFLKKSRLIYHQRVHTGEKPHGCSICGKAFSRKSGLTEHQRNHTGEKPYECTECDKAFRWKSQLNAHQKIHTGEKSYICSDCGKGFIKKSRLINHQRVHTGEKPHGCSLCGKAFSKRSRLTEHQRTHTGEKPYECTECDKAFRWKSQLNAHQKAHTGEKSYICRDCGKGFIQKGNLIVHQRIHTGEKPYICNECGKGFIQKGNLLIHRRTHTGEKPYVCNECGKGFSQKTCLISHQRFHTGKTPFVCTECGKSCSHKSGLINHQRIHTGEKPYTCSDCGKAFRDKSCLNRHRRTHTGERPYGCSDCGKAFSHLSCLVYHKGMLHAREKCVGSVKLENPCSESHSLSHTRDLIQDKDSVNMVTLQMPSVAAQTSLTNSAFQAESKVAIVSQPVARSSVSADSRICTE
UniProt Q6IQ32: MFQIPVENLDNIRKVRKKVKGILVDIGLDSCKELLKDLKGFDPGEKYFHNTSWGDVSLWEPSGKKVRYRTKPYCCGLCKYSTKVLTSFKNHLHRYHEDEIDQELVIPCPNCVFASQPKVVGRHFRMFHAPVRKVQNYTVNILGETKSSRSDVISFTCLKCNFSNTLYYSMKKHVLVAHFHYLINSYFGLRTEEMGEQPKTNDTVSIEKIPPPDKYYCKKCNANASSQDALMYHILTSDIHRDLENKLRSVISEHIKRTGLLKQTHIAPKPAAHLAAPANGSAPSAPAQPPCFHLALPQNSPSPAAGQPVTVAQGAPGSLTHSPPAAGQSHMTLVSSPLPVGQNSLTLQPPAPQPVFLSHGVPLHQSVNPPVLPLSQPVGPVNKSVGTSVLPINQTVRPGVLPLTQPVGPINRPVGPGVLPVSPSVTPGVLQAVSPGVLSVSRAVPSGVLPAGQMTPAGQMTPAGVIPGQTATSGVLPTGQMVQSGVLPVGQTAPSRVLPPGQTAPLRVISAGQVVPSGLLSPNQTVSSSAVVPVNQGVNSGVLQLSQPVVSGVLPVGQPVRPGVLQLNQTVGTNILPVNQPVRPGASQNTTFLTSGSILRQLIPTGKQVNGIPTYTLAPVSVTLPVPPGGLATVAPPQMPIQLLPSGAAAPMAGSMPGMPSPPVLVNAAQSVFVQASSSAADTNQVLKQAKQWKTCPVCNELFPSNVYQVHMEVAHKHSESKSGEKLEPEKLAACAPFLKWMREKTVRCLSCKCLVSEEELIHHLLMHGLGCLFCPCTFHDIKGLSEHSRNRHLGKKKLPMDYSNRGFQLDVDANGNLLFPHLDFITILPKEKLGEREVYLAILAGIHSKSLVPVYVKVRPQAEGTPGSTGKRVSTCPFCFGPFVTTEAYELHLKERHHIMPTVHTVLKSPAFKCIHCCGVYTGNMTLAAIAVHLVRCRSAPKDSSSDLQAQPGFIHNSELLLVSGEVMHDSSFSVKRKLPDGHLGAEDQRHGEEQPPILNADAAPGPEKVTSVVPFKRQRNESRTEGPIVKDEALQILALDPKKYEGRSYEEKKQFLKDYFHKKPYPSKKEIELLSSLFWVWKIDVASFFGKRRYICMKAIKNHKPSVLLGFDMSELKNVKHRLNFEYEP
UniProt Q6PGQ7, whole entry: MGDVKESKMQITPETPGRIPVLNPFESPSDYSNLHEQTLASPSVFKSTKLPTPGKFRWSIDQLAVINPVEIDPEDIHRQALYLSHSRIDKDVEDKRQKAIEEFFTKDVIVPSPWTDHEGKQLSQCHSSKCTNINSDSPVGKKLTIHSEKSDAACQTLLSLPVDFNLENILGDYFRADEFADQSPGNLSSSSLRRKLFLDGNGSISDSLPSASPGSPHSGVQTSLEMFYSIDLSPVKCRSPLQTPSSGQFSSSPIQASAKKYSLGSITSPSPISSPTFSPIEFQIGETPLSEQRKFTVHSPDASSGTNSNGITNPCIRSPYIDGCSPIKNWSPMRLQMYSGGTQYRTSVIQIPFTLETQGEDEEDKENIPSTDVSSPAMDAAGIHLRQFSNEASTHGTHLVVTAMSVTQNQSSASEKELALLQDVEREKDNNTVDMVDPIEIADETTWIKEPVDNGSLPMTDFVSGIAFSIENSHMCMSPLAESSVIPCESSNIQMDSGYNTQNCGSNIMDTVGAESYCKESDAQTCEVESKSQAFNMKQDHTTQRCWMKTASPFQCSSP
UniProt Q5XKK7: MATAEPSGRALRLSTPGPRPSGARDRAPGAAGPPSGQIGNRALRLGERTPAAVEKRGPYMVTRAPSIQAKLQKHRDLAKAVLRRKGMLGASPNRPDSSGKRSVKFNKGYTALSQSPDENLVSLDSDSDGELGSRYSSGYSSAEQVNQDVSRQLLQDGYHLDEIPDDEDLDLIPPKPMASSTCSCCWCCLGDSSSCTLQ
UniProt Q67FW5: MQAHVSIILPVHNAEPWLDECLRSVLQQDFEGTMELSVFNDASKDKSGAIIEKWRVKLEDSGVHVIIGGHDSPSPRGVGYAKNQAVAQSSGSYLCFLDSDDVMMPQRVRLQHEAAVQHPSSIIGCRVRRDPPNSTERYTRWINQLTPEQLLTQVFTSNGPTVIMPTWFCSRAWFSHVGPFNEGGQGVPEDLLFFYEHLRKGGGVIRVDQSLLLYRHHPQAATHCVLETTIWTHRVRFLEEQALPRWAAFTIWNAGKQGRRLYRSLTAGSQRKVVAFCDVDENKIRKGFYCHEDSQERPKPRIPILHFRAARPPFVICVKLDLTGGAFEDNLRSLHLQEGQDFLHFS

Ten targets from the supplement of paper PMC12819154, “High-throughput peptide-centric local stability assay extends protein–ligand identification to membrane proteins, tissues and bacteria” (Nature Structural & Molecular Biology, 2025) can be followed below.

Compound in this assay: Cc1nc(Nc2ncc(C(=O)Nc3c(C)cccc3Cl)s2)cc(N2CCN(CCO)CC2)n1 [dasatinib]
The experiment in a line: log2 fold change of tryptic peptide abundance, ligand vs vehicle (limited proteolysis) (log2 ratio); higher = more trypsin-susceptible (destabilized). The settings on record: ligand concentration: 5 uM; sample: K562 cleared lysate.
As for “RICTOR (peptide sequence: RAQSLKAPSIATIK, peptide start residue: 1299) (UniProt Q6R327)”, the log2 fold change is -0.419.

Regarding “ANKRD54 (peptide sequence: YLHVLWQQDAEPRDELR, peptide start residue: 67) (UniProt Q6NXT1)”, the log2 fold change is -0.41.

Consider “SASS6 (peptide sequence: MSIELQSVSNPVHRK, peptide start residue: 28) (UniProt Q6UVJ0)”, for which the log2 fold change came to 0.135.

As for “UniProt Q6PF04 (peptide sequence: SNLSLVNQNK, peptide start residue: 139)”, the log2 fold change was -0.304.

For “FBXO38 (peptide sequence: CSDEERPSTSR, peptide start residue: 791) (UniProt Q6PIJ6)”, the log2 fold change was determined as 0.235.

With “ADNP2 (peptide sequence: MFHAPVRK, peptide start residue: 126) (UniProt Q6IQ32)”, the log2 fold change is 0.551.

With “UniProt Q6PGQ7 (peptide sequence: DVIVPSPWTDHEGK, peptide start residue: 107)”, the log2 fold change is -0.319.

“FAM219B (peptide sequence: DRAPGAAGPPSGQIGNR, peptide start residue: 25) (UniProt Q5XKK7)”: the log2 fold change came to 0.232.

“UniProt Q63HN8 (peptide sequence: TQTGHVLGNPQR, peptide start residue: 4553)”: the log2 fold change turned out to be 0.632.

For “B3GNTL1 (peptide sequence: SLHLQEGQDFLHFS, peptide start residue: 348) (UniProt Q67FW5)”, the log2 fold change was -0.401.
